Source: paper doi:10.1101/2021.01.31.429078
These are yes or no findings as the source states them, for the method shown. Binding seen in cells or lysates may run through a third protein. Binding can be weak; no strength is given. For some assays here: Tags and fused reporters may be left off the sequences shown.

T1: MST2 (endogenous, MCF10A cells) (human (endogenous in MCF10A)) (UniProt Q13188)
T1 sequence: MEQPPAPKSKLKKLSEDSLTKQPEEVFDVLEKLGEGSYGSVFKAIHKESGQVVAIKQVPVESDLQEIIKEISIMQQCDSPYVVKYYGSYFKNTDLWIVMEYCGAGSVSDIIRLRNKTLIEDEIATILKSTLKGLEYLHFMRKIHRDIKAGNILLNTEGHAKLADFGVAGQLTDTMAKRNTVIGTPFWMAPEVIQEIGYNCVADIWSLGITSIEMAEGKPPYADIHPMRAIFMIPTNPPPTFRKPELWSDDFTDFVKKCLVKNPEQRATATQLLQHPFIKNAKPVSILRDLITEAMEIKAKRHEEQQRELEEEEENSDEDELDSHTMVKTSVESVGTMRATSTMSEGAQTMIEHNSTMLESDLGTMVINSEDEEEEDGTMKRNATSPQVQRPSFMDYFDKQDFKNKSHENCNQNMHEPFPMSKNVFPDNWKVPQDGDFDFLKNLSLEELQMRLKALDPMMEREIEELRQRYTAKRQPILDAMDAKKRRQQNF


Key:
Test in all cases: co-IP
[1] = target: T1, MST2 (endogenous, MCF10A cells) (human (endogenous in MCF10A))
[2] = target: βTrCP (endogenous, HEK293T cells) (human (endogenous in HEK293T))
[3] = target: Flag-tagged full length βTrCP
[4] = target: Flag-tagged βTrCP lacking the whole Fbox domain (βΔFbox)

| Molecule | binding [2] | further results |
| --- | --- | --- |
| βTrCP (endogenous, MCF10A cells) (human (endogenous in MCF10A)) | – | binding [1]: binds |
| FFSS-tagged MST2 with the tripeptide ESG (48-50) deleted (protein, UniProt Q13188-1 1-491) MEQPPAPKSKLKKLSEDSLTKQPEEVFDVLEKLGEGSYGSVFKAIHKQVVAIKQVPVESDLQEIIKEISIMQQCDSPYVVKYYGSYFKNTDLWIVMEYCGAGSVSDIIRLRNKTLIEDEIATILKSTLKGLEYLHFMRKIHRDIKAGNILLNTEGHAKLADFGVAGQLTDTMAKRNTVIGTPFWMAPEVIQEIGYNCVADIWSLGITSIEMAEGKPPYADIHPMRAIFMIPTNPPPTFRKPELWSDDFTDFVKKCLVKNPEQRATATQLLQHPFIKNAKPVSILRDLITEAMEIKAKRHEEQQRELEEEEENSDEDELDSHTMVKTSVESVGTMRATSTMSEGAQTMIEHNSTMLESDLGTMVINSEDEEEEDGTMKRNATSPQVQRPSFMDYFDKQDFKNKSHENCNQNMHEPFPMSKNVFPDNWKVPQDGDFDFLKNLSLEELQMRLKALDPMMEREIEELRQRYTAKRQPILDAMDAKKRRQQNF | binds | – |
| MST2 (endogenous, HEK293T cells) (protein, UniProt Q13188-1 1-491) MEQPPAPKSKLKKLSEDSLTKQPEEVFDVLEKLGEGSYGSVFKAIHKESGQVVAIKQVPVESDLQEIIKEISIMQQCDSPYVVKYYGSYFKNTDLWIVMEYCGAGSVSDIIRLRNKTLIEDEIATILKSTLKGLEYLHFMRKIHRDIKAGNILLNTEGHAKLADFGVAGQLTDTMAKRNTVIGTPFWMAPEVIQEIGYNCVADIWSLGITSIEMAEGKPPYADIHPMRAIFMIPTNPPPTFRKPELWSDDFTDFVKKCLVKNPEQRATATQLLQHPFIKNAKPVSILRDLITEAMEIKAKRHEEQQRELEEEEENSDEDELDSHTMVKTSVESVGTMRATSTMSEGAQTMIEHNSTMLESDLGTMVINSEDEEEEDGTMKRNATSPQVQRPSFMDYFDKQDFKNKSHENCNQNMHEPFPMSKNVFPDNWKVPQDGDFDFLKNLSLEELQMRLKALDPMMEREIEELRQRYTAKRQPILDAMDAKKRRQQNF | – | binding [3]: binds; binding [4]: binds |
| FFSS-tagged MST2 with the tripeptide ESD (359-361) deleted (protein, UniProt Q13188-1 1-491) MEQPPAPKSKLKKLSEDSLTKQPEEVFDVLEKLGEGSYGSVFKAIHKESGQVVAIKQVPVESDLQEIIKEISIMQQCDSPYVVKYYGSYFKNTDLWIVMEYCGAGSVSDIIRLRNKTLIEDEIATILKSTLKGLEYLHFMRKIHRDIKAGNILLNTEGHAKLADFGVAGQLTDTMAKRNTVIGTPFWMAPEVIQEIGYNCVADIWSLGITSIEMAEGKPPYADIHPMRAIFMIPTNPPPTFRKPELWSDDFTDFVKKCLVKNPEQRATATQLLQHPFIKNAKPVSILRDLITEAMEIKAKRHEEQQRELEEEEENSDEDELDSHTMVKTSVESVGTMRATSTMSEGAQTMIEHNSTMLLGTMVINSEDEEEEDGTMKRNATSPQVQRPSFMDYFDKQDFKNKSHENCNQNMHEPFPMSKNVFPDNWKVPQDGDFDFLKNLSLEELQMRLKALDPMMEREIEELRQRYTAKRQPILDAMDAKKRRQQNF | binds | – |

Second part, led by results:

| binding [2] | Molecule | further results |
| --- | --- | --- |
| binds | FFSS-tagged MST2 with the tripeptide EDS (16-18) deleted (protein, UniProt Q13188-1 1-491) MEQPPAPKSKLKKLSLTKQPEEVFDVLEKLGEGSYGSVFKAIHKESGQVVAIKQVPVESDLQEIIKEISIMQQCDSPYVVKYYGSYFKNTDLWIVMEYCGAGSVSDIIRLRNKTLIEDEIATILKSTLKGLEYLHFMRKIHRDIKAGNILLNTEGHAKLADFGVAGQLTDTMAKRNTVIGTPFWMAPEVIQEIGYNCVADIWSLGITSIEMAEGKPPYADIHPMRAIFMIPTNPPPTFRKPELWSDDFTDFVKKCLVKNPEQRATATQLLQHPFIKNAKPVSILRDLITEAMEIKAKRHEEQQRELEEEEENSDEDELDSHTMVKTSVESVGTMRATSTMSEGAQTMIEHNSTMLESDLGTMVINSEDEEEEDGTMKRNATSPQVQRPSFMDYFDKQDFKNKSHENCNQNMHEPFPMSKNVFPDNWKVPQDGDFDFLKNLSLEELQMRLKALDPMMEREIEELRQRYTAKRQPILDAMDAKKRRQQNF | – |
| binds | Flag-Flag-Strep-Strep-tagged MST2 wild type (FFSS-MST2 wt) (protein, UniProt Q13188-1 1-491) MEQPPAPKSKLKKLSEDSLTKQPEEVFDVLEKLGEGSYGSVFKAIHKESGQVVAIKQVPVESDLQEIIKEISIMQQCDSPYVVKYYGSYFKNTDLWIVMEYCGAGSVSDIIRLRNKTLIEDEIATILKSTLKGLEYLHFMRKIHRDIKAGNILLNTEGHAKLADFGVAGQLTDTMAKRNTVIGTPFWMAPEVIQEIGYNCVADIWSLGITSIEMAEGKPPYADIHPMRAIFMIPTNPPPTFRKPELWSDDFTDFVKKCLVKNPEQRATATQLLQHPFIKNAKPVSILRDLITEAMEIKAKRHEEQQRELEEEEENSDEDELDSHTMVKTSVESVGTMRATSTMSEGAQTMIEHNSTMLESDLGTMVINSEDEEEEDGTMKRNATSPQVQRPSFMDYFDKQDFKNKSHENCNQNMHEPFPMSKNVFPDNWKVPQDGDFDFLKNLSLEELQMRLKALDPMMEREIEELRQRYTAKRQPILDAMDAKKRRQQNF | – |
| binds weakly | FFSS-tagged MST2 with the tripeptide EDG (375-377) deleted (MST2-delEDG) (protein, UniProt Q13188-1 1-491) MEQPPAPKSKLKKLSEDSLTKQPEEVFDVLEKLGEGSYGSVFKAIHKESGQVVAIKQVPVESDLQEIIKEISIMQQCDSPYVVKYYGSYFKNTDLWIVMEYCGAGSVSDIIRLRNKTLIEDEIATILKSTLKGLEYLHFMRKIHRDIKAGNILLNTEGHAKLADFGVAGQLTDTMAKRNTVIGTPFWMAPEVIQEIGYNCVADIWSLGITSIEMAEGKPPYADIHPMRAIFMIPTNPPPTFRKPELWSDDFTDFVKKCLVKNPEQRATATQLLQHPFIKNAKPVSILRDLITEAMEIKAKRHEEQQRELEEEEENSDEDELDSHTMVKTSVESVGTMRATSTMSEGAQTMIEHNSTMLESDLGTMVINSEDEEETMKRNATSPQVQRPSFMDYFDKQDFKNKSHENCNQNMHEPFPMSKNVFPDNWKVPQDGDFDFLKNLSLEELQMRLKALDPMMEREIEELRQRYTAKRQPILDAMDAKKRRQQNF | – |
